Reference: the GenesisPotency data set
Screen size: about 340,000 compounds; about 1,000 (0.29%) were called active. Rule as the data show it: inconclusive = inhibition above about 29% without an active follow-up result; inactive = below that. The list shows a part of the results. Results with a measured potency or affinity are listed apart.

Each molecule was assayed against T1, Genome polyprotein, Dengue virus type 2 (strain Thailand/16681/1984) (UniProt P29990) (assay: Primary and Confirmatory Screening for Flavivirus Genomic Capping Enzyme Inhibition).
T1 sequence (whole entry): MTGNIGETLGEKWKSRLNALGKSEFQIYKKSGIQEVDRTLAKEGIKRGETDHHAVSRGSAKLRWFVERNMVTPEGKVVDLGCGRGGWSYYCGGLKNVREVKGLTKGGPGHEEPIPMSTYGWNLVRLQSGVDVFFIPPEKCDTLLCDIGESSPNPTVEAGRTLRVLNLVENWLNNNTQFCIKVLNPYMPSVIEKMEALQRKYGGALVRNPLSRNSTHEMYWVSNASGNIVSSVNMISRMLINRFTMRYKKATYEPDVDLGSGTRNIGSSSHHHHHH
For `N#C/C(=C\c1ccc(OC(=O)c2ccc(Br)s2)cc1)c1nc2ccccc2[nH]1`, the outcome was “inactive”.
